Results: US20050181978A1
Results are given in words; binding and its absence hold for the method and conditions named. Some entries that bind do so weakly or less than the wild type.

The chains behind the UniProt entries cited, without tags or fusion partners. Residues count along the entry.
UniProt P03951, residues 19-625: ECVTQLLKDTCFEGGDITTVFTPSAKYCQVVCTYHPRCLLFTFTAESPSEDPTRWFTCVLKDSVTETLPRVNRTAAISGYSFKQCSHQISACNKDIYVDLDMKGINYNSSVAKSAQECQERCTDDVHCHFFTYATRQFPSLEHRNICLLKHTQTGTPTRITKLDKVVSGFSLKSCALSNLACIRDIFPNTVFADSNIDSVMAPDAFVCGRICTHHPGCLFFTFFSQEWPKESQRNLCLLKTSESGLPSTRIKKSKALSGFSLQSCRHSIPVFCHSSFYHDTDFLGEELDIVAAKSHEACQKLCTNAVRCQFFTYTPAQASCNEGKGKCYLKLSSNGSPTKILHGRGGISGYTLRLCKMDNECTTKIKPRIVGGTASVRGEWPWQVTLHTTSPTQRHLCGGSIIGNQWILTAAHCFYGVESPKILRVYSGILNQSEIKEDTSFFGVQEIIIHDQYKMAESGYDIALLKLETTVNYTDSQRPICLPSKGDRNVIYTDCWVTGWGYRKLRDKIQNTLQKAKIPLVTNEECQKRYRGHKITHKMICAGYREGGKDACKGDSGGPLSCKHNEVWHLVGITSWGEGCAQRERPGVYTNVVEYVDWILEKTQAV

Molecular target: Recombinant factor XI from Heamatologic Technologies, biotinylated (UniProt P03951)
Test: on-bead peptide library screen (BL121): biotinylated FXI + streptavidin-alkaline phosphatase, BCIP/NBT colour, blue beads Edman sequenced

Row | binding | Binder
1 | binds | HPWFDDFPHLFQ (C-terminus on Tentagel resin bead) [SEQ ID NO:16]
2 | binds | HDWLVRWPDFPS (C-terminus on Tentagel resin bead) [SEQ ID NO:11]
3 | binds | RRLPLSRLPDFP (C-terminus on Tentagel resin bead) [SEQ ID NO:08]
4 | binds | QRWVPYDDFPSLRS (C-terminus on Tentagel resin bead) [SEQ ID NO:05]
5 | binds | HPWHLVYPDFPS (C-terminus on Tentagel resin bead) [SEQ ID NO:10]
6 | binds | RHFHVFPDFPFVH (C-terminus on Tentagel resin bead) [SEQ ID NO:06]
7 | binds | SHFWRQWPDFSD (C-terminus on Tentagel resin bead) [SEQ ID NO:12]
8 | binds | SRWPWSVFPDFPD (C-terminus on Tentagel resin bead) [SEQ ID NO:03]
9 | binds | HPFFRGYPDFPD (C-terminus on Tentagel resin bead) [SEQ ID NO:09]
10 | binds | DVWDYVVFDDFPS (C-terminus on Tentagel resin bead) [SEQ ID NO:04]
11 | binds | HHFPPFSHFPDLPQ (C-terminus on Tentagel resin bead) [SEQ ID NO:07]
12 | binds | VDWQWSRFDDFPS (C-terminus on Tentagel resin bead) [SEQ ID NO:15]
13 | binds | PQLRWHDFPDFGS (C-terminus on Tentagel resin bead) [SEQ ID NO:13]

Molecular target: Recombinant factor XI from Heamatologic Technologies, biotinylated (UniProt P03951)
Test: on-bead peptide library screen (BL122): biotinylated FXI + streptavidin-alkaline phosphatase, BCIP/NBT colour, blue beads Edman sequenced

Row | binding | Binder
14 | binds | LVKGFPDFPNHN (C-terminus on Tentagel resin bead) [SEQ ID NO:24]
15 | binds | QAIFTRFPDFPN (C-terminus on Tentagel resin bead) [SEQ ID NO:21]
16 | binds | HLYDFDLDNEY (C-terminus on Tentagel resin bead) [SEQ ID NO:33]
17 | binds | KTILGDVDFDI (C-terminus on Tentagel resin bead) [SEQ ID NO:34]
18 | binds | DVWDYVVFDDFPS (C-terminus on Tentagel resin bead) [SEQ ID NO:19]
19 | binds | YKWIHHDDFPLV (C-terminus on Tentagel resin bead) [SEQ ID NO:17]
20 | binds | EWFPDFPEGSDG (C-terminus on Tentagel resin bead) [SEQ ID NO:22]
21 | binds | FNWNNVDEYYDW (C-terminus on Tentagel resin bead) [SEQ ID NO:37]
22 | binds | FYLKTRYYDFPE (C-terminus on Tentagel resin bead) [SEQ ID NO:26]
23 | binds | YDIYDDYEIWA (C-terminus on Tentagel resin bead) [SEQ ID NO:39]
24 | binds | QQPIQRFPDFP (C-terminus on Tentagel resin bead) [SEQ ID NO:20]
25 | binds | HTHAFPDFPPH (C-terminus on Tentagel resin bead) [SEQ ID NO:23]
26 | binds | GPFPYAYEDFPE (C-terminus on Tentagel resin bead) [SEQ ID NO:25]
27 | binds | RQLHPFHHFHG (C-terminus on Tentagel resin bead) [SEQ ID NO:35]
28 | binds | FQARHTIGDFPA (C-terminus on Tentagel resin bead) [SEQ ID NO:27]
29 | binds | RIKDFPSDSNTV (C-terminus on Tentagel resin bead) [SEQ ID NO:28]
30 | binds | IWESHKVIEDFP (C-terminus on Tentagel resin bead) [SEQ ID NO:29]
31 | binds | KIVKFPHTFPDL (C-terminus on Tentagel resin bead) [SEQ ID NO:32]
32 | binds | DQWDWEDYDEAW (C-terminus on Tentagel resin bead) [SEQ ID NO:38]
33 | binds | QKDFHWRILPDF (C-terminus on Tentagel resin bead) [SEQ ID NO:31]
34 | binds | QWFSVSRYQDFD (C-terminus on Tentagel resin bead) [SEQ ID NO:30]
35 | binds | RSWLRYGYGH (C-terminus on Tentagel resin bead) [SEQ ID NO:36]
36 | binds | FDRKRVHPDFPH (C-terminus on Tentagel resin bead) [SEQ ID NO:18]

Molecular target: Recombinant factor XI from Heamatologic Technologies, biotinylated (UniProt P03951)
Test: on-bead peptide library screen (BL124): biotinylated FXI + streptavidin-alkaline phosphatase, BCIP/NBT colour, blue beads Edman sequenced

Row | binding | Binder
37 | binds | LPKTRFLDFPHVSF (C-terminus on Tentagel resin bead) [SEQ ID NO:46]
38 | binds | FFKKTYADFPTSQT (C-terminus on Tentagel resin bead) [SEQ ID NO:51]
39 | binds | YPRHIYPDFPTDTT (C-terminus on Tentagel resin bead) [SEQ ID NO:41]
40 | binds | YVRHRFEDFPTALP (C-terminus on Tentagel resin bead) [SEQ ID NO:43]
41 | binds | LPSFRFPDFPATKT (C-terminus on Tentagel resin bead) [SEQ ID NO:49]
42 | binds | IPKNRFSDFPDAQG (C-terminus on Tentagel resin bead) [SEQ ID NO:48]
43 | binds | VLHNKYDDFPRVKK (C-terminus on Tentagel resin bead) [SEQ ID NO:53]
44 | binds | YPKHIYADFPSTRL (C-terminus on Tentagel resin bead) [SEQ ID NO:40]
45 | binds | YLKHAWPDFPKLQQ (C-terminus on Tentagel resin bead) [SEQ ID NO:42]
46 | binds | QPAHRYPDFPRNNH (C-terminus on Tentagel resin bead) [SEQ ID NO:45]
47 | binds | FPWHKYEDFPSPRT (C-terminus on Tentagel resin bead) [SEQ ID NO:44]
48 | binds | LPPARYPDFPAAKK (C-terminus on Tentagel resin bead) [SEQ ID NO:47]
49 | binds | IFKKTYEDFPRFVY (C-terminus on Tentagel resin bead) [SEQ ID NO:52]
50 | binds | KVKHRFNDFPVWGN (C-terminus on Tentagel resin bead) [SEQ ID NO:54]
51 | binds | RVLNRYPDFPTTNQ (C-terminus on Tentagel resin bead) [SEQ ID NO:50]
